The assay deals with B6C3F1 mice, colon carcinoma 38 s.c., T/C. Briefly: NCI In Vivo Anticancer Drug Screen. Data for tumor model Colon Carcinoma 38 (subcutaneous) in B6C3F1 mice. As to conditions: T/C endpoint: median tumor weight (est.), schedule: Q07DX002 (ip), vehicle: Klucel (hydroxypropylcellulose) (HPC), evaluated on day 20, higher T/C = larger tumour. As for the experimental part:
The antitumor activity of compounds was measured in mice bearing transplantable tumors. Survival or tumor size were measured and the results are expressed as the measurement made in the treated group (T) divided by the measurement made in the vehicle treated control group (C). The tumor model used in this assay is Colon Carcinoma 38 (subcutaneous) in B6C3F1 mice

The list shows only some results of the screen, not a fair sample: it gathers some chemical classes. Other doses and runs of a compound may be missing. T/C is the treated group as % of the vehicle group. Schedules are NCI's codes, read here as Q, the interval in days (D) or hours (H), X, the number of doses. Some T/C values are marked as having no survivor count here; that says nothing about deaths at the dose.

On to `CC1=C[C@H]2O[C@@H]3C[C@H]4OC(=O)/C=C\C=C\C(C(C)O)OCC(O)C(C)CC(=O)OC[C@@]2(C[C@@H]1O)[C@]4(C)[C@@]31CO1` (some centres undefined), for which the T/C (dose: 0.5 mg/kg/injection) is 89 % of control [survivor count not shown], the T/C (dose: 1.0 mg/kg/injection) was 109 % of control [survivor count not shown], the T/C (dose: 2.0 mg/kg/injection) was 103 % of control [survivor count not shown] and the T/C (dose: 4.0 mg/kg/injection) is 94 % of control [survivor count not shown].

The values are drawn from PubChem BioAssay AID214 (DTP/NCI, 2004).
